No constants are given. Whether binding was seen depends on the method and setting. For some of these results: Binding seen in cells or lysates may run through a third protein. Some entries that bind do so weakly or less than the wild type. Where a sequence is shown, tags or fusion partners need not be part of it.

In assay [1] the target is T1, LIKE HETEROCHROMATIN PROTEIN1 (LHP1), full length, fused to the GAL4 DNA binding domain (Arabidopsis thaliana) (UniProt Q946J8).
T1 sequence: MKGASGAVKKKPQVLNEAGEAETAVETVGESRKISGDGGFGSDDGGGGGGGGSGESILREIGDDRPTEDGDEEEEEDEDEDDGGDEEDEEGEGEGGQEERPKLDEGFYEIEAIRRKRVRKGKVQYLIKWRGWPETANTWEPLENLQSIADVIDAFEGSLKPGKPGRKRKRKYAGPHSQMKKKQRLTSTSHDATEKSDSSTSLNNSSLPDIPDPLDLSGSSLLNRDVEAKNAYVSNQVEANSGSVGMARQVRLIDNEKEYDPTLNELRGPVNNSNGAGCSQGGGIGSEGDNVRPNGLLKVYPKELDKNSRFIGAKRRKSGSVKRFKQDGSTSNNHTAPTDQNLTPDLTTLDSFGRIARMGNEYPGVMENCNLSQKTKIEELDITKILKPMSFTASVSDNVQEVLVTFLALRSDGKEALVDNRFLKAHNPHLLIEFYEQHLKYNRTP
Briefly: two-hybrid; GAL4 system in yeast PJ69-4A; LHP1 or truncated LHP1 fused to the GAL4 DNA binding domain as bait, λACT Arabidopsis cDNA library clone / pAD-LIF2 as prey; selection on medium lacking histidine, leucine and tryptophan with 2 mM 3-amino-1,2,4-triazole, β-galactosidase assay; confirmed by independent cotransformations.

For assay [2], the target named is T1, LIKE HETEROCHROMATIN PROTEIN1 (LHP1), full length, fused to the GAL4 DNA binding domain (Arabidopsis thaliana). The experiment in a line: two-hybrid; yeast two-hybrid assays with LIF2 pentapeptide mutant or deletion and LHP1; data not shown.
The target of assay [3] is T2, LHP1 fused to a split YFP fragment for BiFC (Arabidopsis thaliana) (UniProt Q946J8).
T2 sequence: T1 sequence
Briefly: split reporter; BiFC in N. benthamiana leaves with the swapped fusions LIF2:YFP^C and LHP1:YFP^N; data not shown.

The target of assay [4] is T2, LHP1 fused to a split YFP fragment for BiFC (Arabidopsis thaliana). The experiment in a line: split reporter; BiFC with split YFP in transiently transformed N. benthamiana leaves; Agrobacterium strains mixed 1:1, observed 48 to 72 h after infiltration by confocal microscopy; LIF2:YFP^N with LHP1:YFP^C; LHP1 with LHP1.
Assay [5] concerns the target LHP1 protein fused to a His6 tag (Arabidopsis thaliana) (UniProt Q946J8). Briefly: pull-down; E. coli extracts with GST- and His6-tagged proteins mixed in a 1:2 ratio with glutathione Sepharose 4B beads, room temperature 1 h, BB binding buffer, 5 washes; His6-tagged protein detected by anti-His6-peroxidase blot; in duplicate.
The target of assay [6] is T3, LIF2 protein fused to GST (Arabidopsis thaliana) (UniProt Q9ASP6).
T3 sequence: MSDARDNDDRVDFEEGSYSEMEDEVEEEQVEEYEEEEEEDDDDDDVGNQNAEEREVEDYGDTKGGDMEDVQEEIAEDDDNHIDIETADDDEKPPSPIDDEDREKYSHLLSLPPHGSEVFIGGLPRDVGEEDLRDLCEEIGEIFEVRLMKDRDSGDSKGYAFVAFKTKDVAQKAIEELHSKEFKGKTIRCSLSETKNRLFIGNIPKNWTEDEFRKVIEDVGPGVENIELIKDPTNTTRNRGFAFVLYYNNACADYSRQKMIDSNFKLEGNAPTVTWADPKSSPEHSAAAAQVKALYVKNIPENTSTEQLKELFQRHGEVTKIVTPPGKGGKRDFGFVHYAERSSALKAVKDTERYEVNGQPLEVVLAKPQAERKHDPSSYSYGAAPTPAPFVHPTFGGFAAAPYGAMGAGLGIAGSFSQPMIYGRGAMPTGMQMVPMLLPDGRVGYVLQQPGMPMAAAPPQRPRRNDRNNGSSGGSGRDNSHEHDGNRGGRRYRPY
The assay is described as above.

B1: LHP1-Interacting Factor2 (LIF2), partial cDNA clone aa 204-495 isolated in the two-hybrid screen (domain or fragment, UniProt Q9ASP6 204-495)
chain: PKNWTEDEFRKVIEDVGPGVENIELIKDPTNTTRNRGFAFVLYYNNACADYSRQKMIDSNFKLEGNAPTVTWADPKSSPEHSAAAAQVKALYVKNIPENTSTEQLKELFQRHGEVTKIVTPPGKGGKRDFGFVHYAERSSALKAVKDTERYEVNGQPLEVVLAKPQAERKHDPSSYSYGAAPTPAPFVHPTFGGFAAAPYGAMGAGLGIAGSFSQPMIYGRGAMPTGMQMVPMLLPDGRVGYVLQQPGMPMAAAPPQRPRRNDRNNGSSGGSGRDNSHEHDGNRGGRRYRPY
In the case of B1, in assay [1], the binding entry is listed as “binds”.

B2: LIF2 with the putative pentapeptide 361LEVVL365 deleted (protein, UniProt Q9ASP6)
chain: MSDARDNDDRVDFEEGSYSEMEDEVEEEQVEEYEEEEEEDDDDDDVGNQNAEEREVEDYGDTKGGDMEDVQEEIAEDDDNHIDIETADDDEKPPSPIDDEDREKYSHLLSLPPHGSEVFIGGLPRDVGEEDLRDLCEEIGEIFEVRLMKDRDSGDSKGYAFVAFKTKDVAQKAIEELHSKEFKGKTIRCSLSETKNRLFIGNIPKNWTEDEFRKVIEDVGPGVENIELIKDPTNTTRNRGFAFVLYYNNACADYSRQKMIDSNFKLEGNAPTVTWADPKSSPEHSAAAAQVKALYVKNIPENTSTEQLKELFQRHGEVTKIVTPPGKGGKRDFGFVHYAERSSALKAVKDTERYEVNGQPAKPQAERKHDPSSYSYGAAPTPAPFVHPTFGGFAAAPYGAMGAGLGIAGSFSQPMIYGRGAMPTGMQMVPMLLPDGRVGYVLQQPGMPMAAAPPQRPRRNDRNNGSSGGSGRDNSHEHDGNRGGRRYRPY
For the molecule B2, the binding result in assay [2] is given as “binds”.

B3: LIF2 fused to a split YFP fragment for BiFC (protein, UniProt Q9ASP6 1-495)
chain: T3 sequence
As to B3, the binding result in assay [3] and in assay [4] was “binds” each time.

B4: LHP1 protein fused to a His6 tag (protein, UniProt Q946J8 1-445)
chain: T1 sequence
Regarding B4, the binding result in assay [5] and in assay [6] was “binds” each time.

B5: LHP1 fused to a split YFP fragment for BiFC (protein, UniProt Q946J8 1-445)
chain: T1 sequence
As for B5, in assay [4], the binding entry is given as “binds”.

(Values after article PMC3031606.)
